In patent publication US8609419B2, “Method for inserting a nucleic acid of interest into a prokaryotic or eukaryotic cell by homologous recombination” (Centre National de la Recherche Scientifique, priority 2002, dated 2013):

System: DNA vector (plasmid, 5,000 pair of bases long)
Assay: Number of N-AcO-AAF molecules bound per DNA vector (UV spectrophotometry and radioactivity counting)
Conditions: 60 μg DNA vector with 1.2 μg N-AcO-AAF

Work on CC(=O)ON(C(C)=O)c1ccc2c(c1)Cc1ccccc1-2 [N-AcO-AAF, N-acetoxy-2-acetylaminofluorene] yielded a modified bases (step a) 4 minutes) of 0.26%, a modified bases (step a) 8 minutes) of 0.36% and a modified bases (step a) 20 minutes) of 1.12%.
